The values below come from US7141546B1 (priority 2001, dated 2006).

This series can be described thus: general procedure: Boc solid-phase peptide synthesis; MBHA hydrochloride resin (Bachem), substitution about 0.28 mequiv/g; DIC (DIC/HOBt for Asn, Gln); BOP for lactam cyclization. Conditions: whole synthesis, HPLC and capillary zone electrophoresis (CZE), scale of the general procedure about 3 grams of resin.

As to “Ac-Asp-Leu-Ser-D-Phe-His-CML-Leu-Arg-Lys-Nle-Ile-Glu-Ile-Glu-Lys-Gln-Glu-Lys-Glu-Lys-Gln-Gln-Ala-Gln-Asn-Asn-Lys(Ac)-Leu-Leu-Leu-Asp-CML-Ile-NH2”, the “final HPLC purity” value is “greater than 98%”.
In the case of “(cyclo 32–35)D-Phe-His-Leu-Leu-Arg-Glu-Val-Leu-Glu-Nle-Ala-Arg-Ala-Glu-Gln-Leu-Ala-Gln-Gln-Ala-Glu-Ser-Asn-Lys-Lys-Leu-Nle-Glu-Ile-Ile-NH2”, the “final purity (method not given)” value is on record as “about 97%”.
